Results published in article doi:10.1101/2020.05.19.104463.
Residue numbers refer to the chain shown, from its start. These are yes or no findings as the source states them, for the method shown. Binding seen in cells or lysates may run through a third protein. Some results given as binding are weak or reduced against the parent protein; the word gives no strength. For some assays here: Where a sequence is shown, tags or fusion partners need not be part of it.

T1: GFP-RAB13(T22N) (human) (UniProt P51153)
T1 sequence: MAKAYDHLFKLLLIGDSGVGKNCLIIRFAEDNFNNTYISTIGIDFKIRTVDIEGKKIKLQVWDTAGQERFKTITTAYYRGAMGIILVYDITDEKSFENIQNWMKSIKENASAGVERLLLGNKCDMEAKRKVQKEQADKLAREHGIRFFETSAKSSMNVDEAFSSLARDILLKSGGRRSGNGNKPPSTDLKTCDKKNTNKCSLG

T2: GFP-RAB13 (wild type) (human) (UniProt P51153)
T2 sequence: T1 sequence with N22T

T3: RAB13 (endogenous) (human (endogenous in MDA-MB-231)) (UniProt P51153)
T3 sequence: T1 sequence with N22T

B1: RABIF/MSS4 (protein, UniProt P47224 1-123)
chain: MEPAEQPSELVSAEGRNRKAVLCQRCGSRVLQPGTALFSRRQLFLPSMRKKPALSDGSNPDGDLLQEHWLVEDMFIFENVGFTKDVGNIKFLVCADCEIGPIGWHCLDDKNSFYVALERVSHE
B2: Rab escort protein REP-1 (protein, UniProt P24386 1-653)
chain: MADTLPSEFDVIVIGTGLPESIIAAACSRSGRRVLHVDSRSYYGGNWASFSFSGLLSWLKEYQENSDIVSDSPVWQDQILENEEAIALSRKDKTIQHVEVFCYASQDLHEDVEEAGALQKNHALVTSANSTEAADSAFLPTEDESLSTMSCEMLTEQTPSSDPENALEVNGAEVTGEKENHCDDKTCVPSTSAEDMSENVPIAEDTTEQPKKNRITYSQIIKEGRRFNIDLVSKLLYSRGLLIDLLIKSNVSRYAEFKNITRILAFREGRVEQVPCSRADVFNSKQLTMVEKRMLMKFLTFCMEYEKYPDEYKGYEEITFYEYLKTQKLTPNLQYIVMHSIAMTSETASSTIDGLKATKNFLHCLGRYGNTPFLFPLYGQGELPQCFCRMCAVFGGIYCLRHSVQCLVVDKESRKCKAIIDQFGQRIISEHFLVEDSYFPENMCSRVQYRQISRAVLITDRSVLKTDSDQQISILTVPAEEPGTFAVRVIELCSSTMTCMKGTYLVHLTCTSSKTAREDLESVVQKLFVPYTEMEIENEQVEKPRILWALYFNMRDSSDISRSCYNDLPSNVYVCSGPDCGLGNDNAVKQAETLFQEICPNEDFCPPPPNPEDIILDGDSLQPEASESSAIPEANSETFKESTNLGNLEESSE

Columns and labels:
GFP-RAB13(T22N) (human) [1] = biological target: T1, GFP-RAB13(T22N) (human); experiment: co-IP
[2] = biological target: T2, GFP-RAB13 (wild type) (human); experiment: co-IP
GFP-RAB13(T22N) (human) [3] = biological target: T1, GFP-RAB13(T22N) (human); experiment: proximity ligation
[4] = biological target: T3, RAB13 (endogenous) (human (endogenous in MDA-MB-231)); experiment: proximity ligation

Binder | binding (GFP-RAB13(T22N) (human) [1]) | binding [2] | binding (GFP-RAB13(T22N) (human) [3]) | binding [4]
B1 | binds | binds | binds | binds
B2 |  | binds |  | 
